Test results published in patent publication US20250283871A1, “COMPOSITIONS AND METHODS FOR MODULATING THE INTERACTION BETWEEN SS18-SSX FUSION ONCOPROTEIN AND NUCLEOSOMES” (Dana-Farber Cancer Institute, Inc., priority 2020, published 2025).

B1: SLU7 (protein, UniProt O95391 2-586, looked up)
Pre-mRNA-splicing factor SLU7: SATVVDAVNAAPLSGSKEMSLEEPKKMTREDWRKKKELEEQRKLGNAPAEVDEEGKDINPHIPQYISSVPWYIDPSKRPTLKHQRPQPEKQKQFSSSGEWYKRGVKENSIITKYRKGACENCGAMTHKKKDCFERPRRVGAKFTGTNIAPDEHVQPQLMFDYDGKRDRWNGYNPEEHMKIVEEYAKVDLAKRTLKAQKLQEELASGKLVEQANSPKHQWGEEEPNSQMEKDHNSEDEDEDKYADDIDMPGQNFDSKRRITVRNLRIREDIAKYLRNLDPNSAYYDPKTRAMRENPYANAGKNPDEVSYAGDNFVRYTGDTISMAQTQLFAWEAYDKGSEVHLQADPTKLELLYKSFKVKKEDFKEQQKESILEKYGGQEHLDAPPAELLLAQTEDYVEYSRHGTVIKGQERAVACSKYEEDVKIHNHTHIWGSYWKEGRWGYKCCHSFFKYSYCTGEAGKEIVNSEECIINEITGEESVKKPQTLMELHQEKLKEEKKKKKKKKKKHRKSSSDSDDEEKKHEKLKKALNAEEARLLHVKETMQIDERKRPYNSMYETREPTEEEMEAYRMKRQRPDDPMASFLGQ
B2: ZCCHC10 (protein, UniProt Q8TBK6 1-192, looked up)
Zinc finger CCHC …: MATPMHRLIARRQAFDTELQPVKTFWILIQPSIVISEANKQHVRCQKCLEFGHWTYECTGKRKYLHRPSRTAELKKALKEKENRLLLQQSIGETNVERKAKKKRSKSVTSSSSSSSDSSASDSSSESEETSTSSSSEDSDTDESSSSSSSSASSTTSSSSSDSDSDSSSSSSSSTSTDSSSDDEPPKKKKKK
B3: NUP62 (protein)
chain: SGFNFGGTGAPTGGFTFGTAKTATTTPATGFSFSTSGTGGFNFGAPFQPATSTPSTGLFSLATQTPATQTTGFTFGTATLASGGTGFSLGIGASKLNLSNTAATPAMANPSGFGLGSSNLTNAISSTVTSSQGTAPTGFVFGPSTTSVAPATTSGGFSFTGGSTAQPSGFNIGSAGNSAQPTAPATLPFTPATPAATTAGATQPAAPTPTATITSTGPSLFASIATAPTSSATTGLSLCTPVTTAGAPTAGTQGFSLKAPGAASGTSTTTSTAATATATTTSSSSTTGFALNLKPLAPAGIPSNTAAAVTAPPGPGAAAGAAASSAMTYAQLESLINKWSLELEDQERHFLQQATQVNAWDRTLIENGEKITSLHREVEKVKLDQKRLDQELDFILSQQKELEDLLSPLEELVKEQSGTIYLQHADEEREKTYKLAENIDAQLKRMAQDLKDIIEHLNTSGAPADTSDPLQQICKILNAHMDSLQWIDQNSALLQRKVEEVTKVCEGRRKEQERSFRITFD
B4: NVL (protein, UniProt O15381 1-856, looked up)
Nuclear valosin-containing …: MKPRPAGFVDNKLKQRVIQYLTSNKCGKYVDIGVLASDLQRVYSIDYGRRKRNAFRIQVEKVFSIISSEKELKNLTELEDEHLAKRARQGEEDNEYTESYSDDDSSMEDYPDPQSANHMNSSLLSLYRKGNPDSVSNTPEMEQRETTSSTPRISSKTGSIPLKTPAKDSEGGWFIDKTPSVKKDSFFLDLSCEKSNPKKPITEIQDSKDSSLLESDMKRKGKLKNKGSKRKKEDLQEVDGEIEAVLQKKAKARGLEFQISNVKFEDVGGNDMTLKEVCKMLIHMRHPEVYHHLGVVPPRGVLLHGPPGCGKTLLAHAIAGELDLPILKVAAPEIVSGVSGESEQKLRELFEQAVSNAPCIIFIDEIDAITPKREVASKDMERRIVAQLLTCMDDLNNVAATARVLVIGATNRPDSLDPALRRAGRFDREICLGIPDEASRERILQTLCRKLRLPQAFDFCHLAHLTPGFVGADLMALCREAAMCAVNRVLMKLQEQQKKNPEMEDLPSKGVQEERLGTEPTSETQDELQRLLGLLRDQDPLSEEQMQGLCIELNDFIVALSSVQPSAKREGFVTVPNVTWADIGALEDIREELTMAILAPVRNPDQFKALGLVTPAGVLLAGPPGCGKTLLAKAVANESGLNFISVKGPELLNMYVGESERAVRQVFQRAKNSAPCVIFFDEVDALCPRRSDRETGASVRVVNQLLTEMDGLEARQQVFIMAATNRPDIIDPAILRPGRLDKTLFVGLPPPADRLAILKTITKNGTKPPLDADVNLEAIAGDLRCDCYTGADLSALVREASICALRQEMARQKSGNEKGELKVSHKHFEEAFKKVRSSISKKDQIMYERLQESLSR
B5: NOP58 (protein, UniProt Q9Y2X3 1-529, looked up)
Nucleolar protein 58: MLVLFETSVGYAIFKVLNEKKLQEVDSLWKEFETPEKANKIVKLKHFEKFQDTAEALAAFTALMEGKINKQLKKVLKKIVKEAHEPLAVADAKLGGVIKEKLNLSCIHSPVVNELMRGIRSQMDGLIPGVEPREMAAMCLGLAHSLSRYRLKFSADKVDTMIVQAISLLDDLDKELNNYIMRCREWYGWHFPELGKIISDNLTYCKCLQKVGDRKNYASAKLSELLPEEVEAEVKAAAEISMGTEVSEEDICNILHLCTQVIEISEYRTQLYEYLQNRMMAIAPNVTVMVGELVGARLIAHAGSLLNLAKHAASTVQILGAEKALFRALKSRRDTPKYGLIYHASLVGQTSPKHKGKISRMLAAKTVLAIRYDAFGEDSSSAMGVENRAKLEARLRTLEDRGIRKISGTGKALAKTEKYEHKSEVKTYDPSGDSTLPTCSKKRKIEQVDKEDEITEKKAKKAKIKVKVEEEEEEKVAEEEETSVKKKKKRGKKKHIKEEPLSEEEPCTSTAIASPEKKKKKKKKRENED
B6: NOP16 (protein, UniProt Q9Y3C1 1-178, looked up)
Nucleolar protein 16: MPKAKGKTRRQKFGYSVNRKRLNRNARRKAAPRIECSHIRHAWDHAKSVRQNLAEMGLAVDPNRAVPLRKRKVKAMEVDIEERPKELVRKPYVLNDLEAEASLPEKKGNTLSRDLIDYVRYMVENHGEDYKAMARDEKNYYQDTPKQIRSKINVYKRFYPAEWQDFLDSLQKRKMEVE
B7: PRDM10 (protein, UniProt Q9NQV6 1-1147, looked up)
PR domain zinc finger protein …: MDSKDESSHVWPTSAEHEQNAAQVHFVPDTGTVAQIVYTDDQVRPPQQVVYTADGASYTSVDGPEHTLVYIHPVEAAQTLFTDPGQVAYVQQDATAQQASLPVHNQVLPSIESVDGSDPLATLQTPLGRLEAKEEEDEDEDEDTEEDEEEDGEDTDLDDWEPDPPRPFDPHDLWCEECNNAHASVCPKHGPLHPIPNRPVLTRARASLPLVLYIDRFLGGVFSKRRIPKRTQFGPVEGPLVRGSELKDCYIHLKVSLDKGDRKERDLHEDLWFELSDETLCNWMMFVRPAQNHLEQNLVAYQYGHHVYYTTIKNVEPKQELKVWYAASYAEFVNQKIHDISEEERKVLREQEKNWPCYECNRRFISSEQLQQHLNSHDEKLDVFSRTRGRGRGRGKRRFGPGRRPGRPPKFIRLEITSENGEKSDDGTQDLLHFPTKEQFDEAEPATLNGLDQPEQTTIPIPQLPQETQSSLEHEPETHTLHLQPQHEESVVPTQSTLTADDMRRAKRIRLELQNAALQHLFIRKSFRPFKCLQCGKAFREKDKLDQHLRFHGREGNCPLTCDLCNKGFISSTSLESHMKLHSDQKTYSCIFCPESFDRLDLLKDHVAIHINDGYFTCPTCKKRFPDFIQVKKHVRSFHSEKIYQCTECDKAFCRPDKLRLHMLRHSDRKDFLCSTCGKQFKRKDKLREHMQRMHNPEREAKKADRISRSKTFKPRITSTDYDSFTFKCRLCMMGFRRRGMLVNHLSKRHPDMKIEEVPELTLPIIKPNRDYFCQYCDKVYKSASKRKAHILKNHPGAELPPSIRKLRPAGPGEPDPMLSTHTQLTGTIATPPVCCPHCSKQYSSKTKMVQHIRKKHPEFAQLSNTIHTPLTTAVISATPAVLTTDSATGETVVTTDLLTQAMTELSQTLTTDYRTPQGDYQRIQYIPVSQSASGLQQPQHIQLQVVQVASATSPHQSQQSTVDVGQLHDPQPYPQHAIQVQHIQVSGQPLSPSAQQAQQGLSPSHIQGSSSTQGQALQQQQQQQQNSSVQHTYLPSAWNSFRGYSSEIQMMTLPPGQFVITDSGVATPVTTGQVKAVTSGHYVLSESQSELEEKQTSALSGGVQVEPPAHSDSLDPQTNSQQQTTQYIITTTTNGNGSSEVHITKP
B8: GSG2 (protein, UniProt Q8TF76 1-798, looked up)
Serine/threonine-protein …: MAASLPGPGSRLFRTYGAADGRRQRRPGREAAQWFPPQDRRRFFNSSGSSDASIGDPSQSDDPDDPDDPDFPGSPVRRRRRRPGGRVPKDRPSLTVTPKRWKLRARPSLTVTPRRLGLRARPPQKCSTPCGPLRLPPFPSRDSGRLSPDLSVCGQPRDGDELGISASLFSSLASPCPGSPTPRDSVISIGTSACLVAASAVPSGLHLPEVSLDRASLPCSQEEATGGAKDTRMVHQTRASLRSVLFGLMNSGTPEDSEFRADGKNMRESCCKRKLVVGNGPEGPGLSSTGKRRATGQDSCQERGLQEAVRREHQEASVPKGRIVPRGIDRLERTRSSRKSKHQEATETSLLHSHRFKKGQKLGKDSFPTQDLTPLQNVCFWTKTRASFSFHKKKIVTDVSEVCSIYTTATSLSGSLLSECSNRPVMNRTSGAPSSWHSSSMYLLSPLNTLSISNKKASDAEKVYGECSQKGPVPFSHCLPTEKLQRCEKIGEGVFGEVFQTIADHTPVAIKIIAIEGPDLVNGSHQKTFEEILPEIIISKELSLLSGEVCNRTEGFIGLNSVHCVQGSYPPLLLKAWDHYNSTKGSANDRPDFFKDDQLFIVLEFEFGGIDLEQMRTKLSSLATAKSILHQLTASLAVAEASLRFEHRDLHWGNVLLKKTSLKKLHYTLNGKSSTIPSCGLQVSIIDYTLSRLERDGIVVFCDVSMDEDLFTGDGDYQFDIYRLMKKENNNRWGEYHPYSNVLWLHYLTDKMLKQMTFKTKCNTPAMKQIKRKIQEFHRTMLNFSSATDLLCQHSLFK
B9: CWC15 (protein, UniProt Q9P013 2-229, looked up)
Spliceosome-associated …: TTAARPTFEPARGGRGKGEGDLSQLSKQYSSRDLPSHTKIKYRQTTQDAPEEVRNRDFRRELEERERAAAREKNRDRPTREHTTSSSVSKKPRLDQIPAANLDADDPLTDEEDEDFEEESDDDDTAALLAELEKIKKERAEEQARKEQEQKAEEERIRMENILSGNPLLNLTGPSQPQANFKVKRRWDDDVVFKNCAKGVDDQKKDKRFVNDTLRSEFHKKFMEKYIK

Test system: BAF complex subunits and histone proteins
Assay: Mass spectrometry proteomics of purified HA-SS18 WT and HA-SS18-SSX1 complexes (Tables 5A-5E)
Set-up: species or system human
Conditions: for Total / Unique: HA-SS18SSX1_CHR_peptides; for Total: total peptides of the identified protein; for Unique: unique peptides of the identified protein; for Total (peptides) / Unique (peptides) / Total (total peptides) / Unique (unique peptides): HEK-293T
[1] = HA-SS18WT_NE_peptides: proteins co-purified with HA-SS18 WT from nuclear extract (NE)
[2] = HA-SS18WT_CHR_peptides: protein identified in HA-SS18 WT BAF complex purification from nuclease-treated solubilized chromatin (CHR)
[3] = HA-SS18SSX1_CHR_peptides: protein identified in the HA-SS18-SSX1 purification from solubilized chromatin (CHR)
[4] = HA-SS18SSX1 purification, NE (soluble nuclear extract) fraction, peptides per identified protein
[5] = HA-SS18WT_CHR_peptides: HA-SS18 WT purification from nuclease-treated solubilized chromatin (CHR), label = protein identified
[6] = HA-SS18WT_NE_peptides: HA-SS18 WT complexes purified from nuclear extract (NE), label = protein identified (Gene Symbol)

| Molecule | Total | Unique | further results |
| --- | --- | --- | --- |
| B1 | 1 | 1 |  |
| B2 | 1 | 1 |  |
| B3 | 1 | 1 | Total (peptides) [1]: 1; Unique (peptides) [1]: 1 |
| B4 | 1 | 1 | Total (total peptides) [2]: 1; Unique (unique peptides) [2]: 1 |
| B5 |  |  | Total (total peptides) [3]: 26; Unique (unique peptides) [3]: 19; Total (total peptides) [4]: 11; Unique (unique peptides) [4]: 10; Total (peptides) [5]: 24; Unique (peptides) [5]: 14; Total (peptides) [6]: 7; Unique (peptides) [6]: 7 |
| B6 | 1 | 1 | Total (peptides) [5]: 3; Unique (peptides) [5]: 3 |
| B7 | 1 | 1 |  |
| B8 | 1 | 1 | Total (total peptides) [2]: 1; Unique (unique peptides) [2]: 1 |
| B9 | 1 | 1 |  |
